This is an account of results in paper PMC2373891.

By UniProt entry, the sequences of proteins in these tests, tags left out. Where a name states a change or a piece, a line headed by the entry shows the natural chain unless it says otherwise.
UniProt P09083: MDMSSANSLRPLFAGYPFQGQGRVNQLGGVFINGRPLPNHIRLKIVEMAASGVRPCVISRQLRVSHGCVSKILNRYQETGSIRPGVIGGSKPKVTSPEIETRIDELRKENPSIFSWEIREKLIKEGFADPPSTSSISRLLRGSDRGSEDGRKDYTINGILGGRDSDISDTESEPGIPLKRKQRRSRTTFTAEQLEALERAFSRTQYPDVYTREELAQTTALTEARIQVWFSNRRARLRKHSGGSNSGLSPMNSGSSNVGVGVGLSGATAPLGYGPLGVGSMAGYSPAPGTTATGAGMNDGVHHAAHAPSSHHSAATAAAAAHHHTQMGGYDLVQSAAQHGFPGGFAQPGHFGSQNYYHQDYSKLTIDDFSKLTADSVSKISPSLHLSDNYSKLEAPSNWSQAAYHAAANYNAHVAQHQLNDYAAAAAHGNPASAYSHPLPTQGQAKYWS

Test [1] addresses T1, EN protein in extracts of HS-EN embryos (Drosophila) (UniProt P02836).
T1 sequence: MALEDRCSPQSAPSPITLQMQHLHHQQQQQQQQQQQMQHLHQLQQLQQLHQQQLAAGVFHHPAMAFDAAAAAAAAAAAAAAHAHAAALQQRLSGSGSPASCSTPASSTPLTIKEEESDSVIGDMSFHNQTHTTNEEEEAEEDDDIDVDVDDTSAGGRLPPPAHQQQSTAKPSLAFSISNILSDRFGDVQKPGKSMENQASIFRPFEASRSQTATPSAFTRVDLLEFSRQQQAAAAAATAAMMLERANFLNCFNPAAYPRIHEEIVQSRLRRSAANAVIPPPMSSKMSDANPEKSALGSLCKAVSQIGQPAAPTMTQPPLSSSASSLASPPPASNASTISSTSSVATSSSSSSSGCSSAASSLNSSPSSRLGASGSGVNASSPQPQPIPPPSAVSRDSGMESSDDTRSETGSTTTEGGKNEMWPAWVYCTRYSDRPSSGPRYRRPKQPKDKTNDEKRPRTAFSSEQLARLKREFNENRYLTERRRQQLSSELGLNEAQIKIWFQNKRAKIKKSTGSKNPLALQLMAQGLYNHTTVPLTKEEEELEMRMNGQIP
Description: co-IP; 35S-labelled in vitro translated protein with protein extracts from HS-GsbN or HS-EN embryos; precipitated with anti-GsbN or anti-EN (4F11) antibody.

Test [2] has as its target T2, GST-EN fusion protein (Drosophila) (UniProt P02836).
T2 sequence: T1 sequence
Description: pull-down; GST or GST fusion on glutathione agarose beads; 35S-labelled in vitro translated protein, 1 hr at room temperature in TBST with 0.5% Triton X-100 and 0.2% BSA; washes with 1% Triton X-100 and 250, 500, 750 mM and 1 M NaCl; autoradiography; only the target purified.

For test [3], the target named is T3, full-length Engrailed protein fused to the Gal4 DNA binding domain (pGBT9-EN) (Drosophila) (UniProt P02836).
T3 sequence: T1 sequence
Kind of test: two-hybrid; beta-galactosidase staining after mating of the EN-FL (pGBT9) strain with strains holding GsbN-FL or GsbN-Cter (pGAD).

The target in test [4] is T3, full-length Engrailed protein fused to the Gal4 DNA binding domain (pGBT9-EN) (Drosophila). Description: two-hybrid; histidine selection on -W-L-H medium with increasing amounts of 3AT; empty pGBT9 and pGAD as negative controls.
The target in test [5] is GsbN protein in extracts of HS-GsbN embryos (Drosophila) (UniProt P09083). Kind of test: co-IP; 35S-labelled in vitro translated protein with protein extracts from HS-GsbN or HS-EN embryos; precipitated with anti-GsbN or anti-EN (4F11) antibody.
Test [6] deals with GST-GsbN fusion protein (Drosophila) (UniProt P09083). Kind of test: pull-down; GST or GST fusion on glutathione agarose beads; 35S-labelled in vitro translated protein, 1 hr at room temperature in TBST with 0.5% Triton X-100 and 0.2% BSA; washes with 1% Triton X-100 and 250, 500, 750 mM and 1 M NaCl; autoradiography; only the target purified.

These are yes or no findings as the source states them, for the method shown. For some of these results: In cells and extracts the contact can be indirect. Some entries that bind do so weakly or less than the wild type. For some of these results: Sequences can lack the tags named with a protein.

“35S-labelled in vitro translated full-length GsbN protein (from UniProt P09083 1-449)”: the binding result in test [1] and in test [2] was “binds” in each case.

On to “C-terminal region of GsbN (aa 173 to aa 449) fused to the Gal4 activation domain (pGAD) (from UniProt P09083 173-449) (domain or fragment)”, for which the binding entry in test [3] and in test [4] was “binds” each time.

For “full-length GsbN fused to the Gal4 activation domain (pGAD) (from UniProt P09083 1-449)”, in test [3], the binding result is recorded as “binds”.

B1: 35S-labelled in vitro translated full-length EN protein (protein, UniProt P02836 1-552)
chain: T1 sequence
modifications: 35S-labelled
With B1, the binding entry in test [5] and in test [6] was “binds” in each case.
